These are yes or no findings as the source states them, for the method shown. Binding can be weak; no strength is given.
Key:
[1] = molecular target: IgG Fc binding protein (Fcgbp), murine (mouse (endogenous in murine duodenum and caecum/colon)); experiment: SEC + native gel or EMSA; murine duodenal extract (four animals) on Superdex 75 HL (20 mM Tris-HCl pH 7.0, 30 mM NaCl); high-molecular-mass fractions B8 and B9 on 1% native AgGE with Western blots for Tff3, Fcgbp and Tff1; SDS-PAGE under reducing and non-reducing conditions
[2] = molecular target: IgG Fc binding protein (Fcgbp), murine (mouse (endogenous in murine duodenum and caecum/colon)); experiment: SEC + native gel or EMSA; extract of murine caecum plus total colon on Superdex 75 HL (20 mM Tris-HCl pH 7.0, 30 mM NaCl); high-molecular-mass fractions on 1% native AgGE with Western blots for Tff3, Fcgbp and Tff1

binding [1]: binds
binding [2]: binds
B1: Tff3 (trefoil factor family peptide 3), murine (protein, UniProt Q62395 23-81)
chain: ADYVGLSPSQCMVPANVRVDCGYPSVTSEQCNNRGCCFDSSIPNVPWCFKPLQETECTF
